From paper PMC7170535

Assays:
[1] = target: complement C3 (human); assay: SPR; ~2,000 RU C3 immobilised on a CM5 chip by amide coupling; rHC1 or IαI as analyte; HEPES-buffered saline pH 7.5, 0.05% Tween 20, 2 mM Mg2+, 2 mM Mn2+; multicycle kinetics, 1:1 Langmuir; both purified
[2] = target: complement C3 (human); assay: SPR; ~2,000 RU C3 immobilised on a CM5 chip; rHC1 as analyte; HEPES-buffered saline pH 7.5, 0.05% Tween 20, 2 mM MnCl2; both purified

binding [1]: no binding (tested: 1–31.25 μM)
binding [2]: no binding (tested: 1–31.25 μM)
B1: recombinant inter-α-inhibitor heavy chain 1 (rHC1), D298A MIDAS mutant (protein, UniProt P19827 35-672)
chain: SKSSEKRQAVDTAVDGVFIRSLKVNCKVTSRFAHYVVTSQVVNTANEAREVAFDLEIPKTAFISDFAVTADGNAFIGDIKDKVTAWKQYRKAAISGENAGLVRASGRTMEQFTIHLTVNPQSKVTFQLTYEEVLKRNHMQYEIVIKVKPKQLVHHFEIDVDIFEPQGISKLDAQASFLPKELAAQTIKKSFSGKKGHVLFRPTVSQQQSCPTCSTSLLNGHFKVTYDVSRDKICDLLVANNHFAHFFAPQNLTNMNKNVVFVIAISGSMRGQKVKQTKEALLKILGDMQPGDYFDLVLFGTRVQSWKGSLVQASEANLQAAQDFVRGFSLDEATNLNGGLLRGIEILNQVQESLPELSNHASILIMLTDGDPTEGVTDRSQILKNVRNAIRGRFPLYNLGFGHNVDFNFLEVMSMENNGRAQRIYEDHDATQQLQGFYSQVAKPLLVDVDLQYPQDAVLALTQNHHKQYYEGSEIVVAGRIADNKQSSFKADVQAHGEGQEFSITCLVDEEEMKKLLRERGHMLENHVERLWAYLTIQELLAKRMKVDREERANLSSQALQMSLDYGFVTPLTSMSIRGMADQDGLKPTIDKPSEDSPPLEMLGPRRTFVLSALQPSPTHSSSNTQRLPDRVTGVDTD

These are yes or no findings as the source states them, for the method shown.
